# In PubChem BioAssay AID2662 (National Center for Advancing Translational Sciences (NCATS), 2010):
# By UniProt entry, the sequences of proteins in these tests, tags left out.
# UniProt Q03164, whole entry, looked up: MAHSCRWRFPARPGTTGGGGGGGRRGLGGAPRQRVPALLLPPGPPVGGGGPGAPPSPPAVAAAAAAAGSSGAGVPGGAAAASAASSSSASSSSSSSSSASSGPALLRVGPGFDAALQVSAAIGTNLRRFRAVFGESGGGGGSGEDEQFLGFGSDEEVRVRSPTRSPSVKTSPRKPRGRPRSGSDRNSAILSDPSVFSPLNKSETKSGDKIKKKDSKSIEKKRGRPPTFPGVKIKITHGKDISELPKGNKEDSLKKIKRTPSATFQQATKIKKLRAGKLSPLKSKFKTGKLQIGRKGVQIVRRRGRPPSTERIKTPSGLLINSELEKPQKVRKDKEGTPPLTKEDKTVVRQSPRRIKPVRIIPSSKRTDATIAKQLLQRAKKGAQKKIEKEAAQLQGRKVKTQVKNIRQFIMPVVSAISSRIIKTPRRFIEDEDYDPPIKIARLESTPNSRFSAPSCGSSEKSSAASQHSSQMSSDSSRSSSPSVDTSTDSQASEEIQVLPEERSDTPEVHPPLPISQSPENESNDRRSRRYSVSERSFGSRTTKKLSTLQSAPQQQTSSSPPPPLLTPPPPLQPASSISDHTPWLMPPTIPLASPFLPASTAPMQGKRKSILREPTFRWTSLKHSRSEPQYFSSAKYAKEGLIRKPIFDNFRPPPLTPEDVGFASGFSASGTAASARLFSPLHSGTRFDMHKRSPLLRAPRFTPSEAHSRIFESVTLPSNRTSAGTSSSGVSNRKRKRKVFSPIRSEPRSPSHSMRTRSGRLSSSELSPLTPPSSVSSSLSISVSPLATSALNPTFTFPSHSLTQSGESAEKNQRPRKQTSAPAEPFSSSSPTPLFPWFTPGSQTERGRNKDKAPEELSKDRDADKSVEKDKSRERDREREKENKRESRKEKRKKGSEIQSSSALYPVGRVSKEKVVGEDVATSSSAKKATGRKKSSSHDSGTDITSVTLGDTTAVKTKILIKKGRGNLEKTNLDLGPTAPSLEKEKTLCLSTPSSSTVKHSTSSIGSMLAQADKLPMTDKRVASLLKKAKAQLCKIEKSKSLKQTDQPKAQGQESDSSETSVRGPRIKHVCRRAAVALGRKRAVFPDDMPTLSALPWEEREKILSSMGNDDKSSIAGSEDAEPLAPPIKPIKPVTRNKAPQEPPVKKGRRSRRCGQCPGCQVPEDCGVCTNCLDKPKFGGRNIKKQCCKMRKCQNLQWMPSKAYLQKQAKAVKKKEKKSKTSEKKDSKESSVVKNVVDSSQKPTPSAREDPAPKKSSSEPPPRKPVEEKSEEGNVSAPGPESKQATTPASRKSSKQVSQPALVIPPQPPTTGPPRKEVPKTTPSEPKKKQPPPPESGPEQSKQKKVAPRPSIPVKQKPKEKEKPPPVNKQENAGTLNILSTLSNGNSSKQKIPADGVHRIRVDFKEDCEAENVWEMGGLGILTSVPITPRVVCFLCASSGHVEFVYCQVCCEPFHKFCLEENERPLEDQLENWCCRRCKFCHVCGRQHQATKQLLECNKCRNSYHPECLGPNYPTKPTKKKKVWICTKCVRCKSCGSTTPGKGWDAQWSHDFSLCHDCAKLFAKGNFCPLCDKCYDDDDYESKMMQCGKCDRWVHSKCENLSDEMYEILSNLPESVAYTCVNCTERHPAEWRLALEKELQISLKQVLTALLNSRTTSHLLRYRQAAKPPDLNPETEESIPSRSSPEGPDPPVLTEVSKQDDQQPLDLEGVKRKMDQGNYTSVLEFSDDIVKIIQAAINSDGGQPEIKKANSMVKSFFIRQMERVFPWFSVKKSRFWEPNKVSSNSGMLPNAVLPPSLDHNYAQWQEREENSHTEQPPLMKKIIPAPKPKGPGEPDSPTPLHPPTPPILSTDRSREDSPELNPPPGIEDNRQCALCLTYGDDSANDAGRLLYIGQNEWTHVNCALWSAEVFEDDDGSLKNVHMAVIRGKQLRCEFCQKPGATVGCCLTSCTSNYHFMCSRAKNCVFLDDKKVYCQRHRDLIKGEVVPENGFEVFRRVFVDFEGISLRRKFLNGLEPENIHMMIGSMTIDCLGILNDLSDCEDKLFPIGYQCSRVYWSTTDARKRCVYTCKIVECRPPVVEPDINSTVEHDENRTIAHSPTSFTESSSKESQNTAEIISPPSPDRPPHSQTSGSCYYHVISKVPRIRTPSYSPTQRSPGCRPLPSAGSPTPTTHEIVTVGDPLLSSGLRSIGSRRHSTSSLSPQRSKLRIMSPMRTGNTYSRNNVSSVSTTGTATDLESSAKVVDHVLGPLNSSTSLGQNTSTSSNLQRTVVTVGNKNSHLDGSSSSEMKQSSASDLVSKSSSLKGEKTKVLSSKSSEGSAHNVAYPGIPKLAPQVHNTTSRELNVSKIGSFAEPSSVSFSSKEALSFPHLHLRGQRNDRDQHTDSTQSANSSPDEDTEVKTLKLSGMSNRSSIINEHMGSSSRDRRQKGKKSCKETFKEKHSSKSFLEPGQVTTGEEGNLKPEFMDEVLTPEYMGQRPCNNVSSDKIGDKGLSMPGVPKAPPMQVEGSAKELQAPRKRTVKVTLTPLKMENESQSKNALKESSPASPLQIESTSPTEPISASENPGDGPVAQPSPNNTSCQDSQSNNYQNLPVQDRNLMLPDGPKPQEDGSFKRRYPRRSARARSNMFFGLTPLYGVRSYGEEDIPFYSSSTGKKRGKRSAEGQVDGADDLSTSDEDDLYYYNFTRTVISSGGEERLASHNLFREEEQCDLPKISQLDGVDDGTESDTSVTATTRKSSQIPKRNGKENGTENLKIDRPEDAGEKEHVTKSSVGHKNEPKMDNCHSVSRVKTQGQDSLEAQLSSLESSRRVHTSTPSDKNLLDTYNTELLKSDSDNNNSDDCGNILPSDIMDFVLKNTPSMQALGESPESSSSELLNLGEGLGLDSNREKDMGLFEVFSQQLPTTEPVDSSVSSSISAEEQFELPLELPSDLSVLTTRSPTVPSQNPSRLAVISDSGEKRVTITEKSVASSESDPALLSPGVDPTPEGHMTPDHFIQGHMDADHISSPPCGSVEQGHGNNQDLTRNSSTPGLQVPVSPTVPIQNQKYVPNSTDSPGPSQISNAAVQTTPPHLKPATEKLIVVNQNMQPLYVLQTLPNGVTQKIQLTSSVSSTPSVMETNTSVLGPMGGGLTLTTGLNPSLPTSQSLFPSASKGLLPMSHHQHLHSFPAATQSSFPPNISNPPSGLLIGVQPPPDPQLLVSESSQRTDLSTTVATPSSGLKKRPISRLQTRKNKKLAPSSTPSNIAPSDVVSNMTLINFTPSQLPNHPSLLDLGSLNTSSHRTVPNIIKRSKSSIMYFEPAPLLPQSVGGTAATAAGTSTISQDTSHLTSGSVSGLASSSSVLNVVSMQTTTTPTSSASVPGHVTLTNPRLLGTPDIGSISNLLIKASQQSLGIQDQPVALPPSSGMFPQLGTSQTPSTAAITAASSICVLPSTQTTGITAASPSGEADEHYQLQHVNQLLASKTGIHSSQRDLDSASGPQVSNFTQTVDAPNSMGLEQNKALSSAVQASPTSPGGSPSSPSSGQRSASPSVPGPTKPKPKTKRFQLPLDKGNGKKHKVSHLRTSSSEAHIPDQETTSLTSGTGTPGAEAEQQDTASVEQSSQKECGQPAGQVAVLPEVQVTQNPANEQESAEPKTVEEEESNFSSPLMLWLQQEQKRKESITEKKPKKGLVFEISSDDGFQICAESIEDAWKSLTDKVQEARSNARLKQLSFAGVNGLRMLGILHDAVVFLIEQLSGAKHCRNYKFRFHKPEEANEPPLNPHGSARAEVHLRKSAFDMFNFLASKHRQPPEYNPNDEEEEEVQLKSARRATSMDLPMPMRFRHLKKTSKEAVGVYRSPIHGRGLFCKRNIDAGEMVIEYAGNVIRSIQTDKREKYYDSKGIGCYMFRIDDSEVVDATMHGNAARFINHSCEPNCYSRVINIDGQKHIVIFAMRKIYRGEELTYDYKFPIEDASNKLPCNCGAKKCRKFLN
# The campaign covered roughly 290,000 compounds. About 110 (0.038%) were called active. The shares of active, inactive and inconclusive entries below differ from those in the screen. Calls follow the shape of the dose curve; as a rule, active = well fitted inhibition curve with a large enough effect in the polarisation, with a control signal flat (not every such curve was filed as active); inconclusive = small, poorly fitted or top-dose-only effect, or effect the other way, or a change in a side signal; inactive = no such curve, though single readings can be large or run the other way; the % refers to the polarisation. Potencies of inconclusive entries are doubtful fits and often do not repeat. “Side channel” marks fits to a control or component signal instead of the main read-out.
# Target: Histone-lysine N-methyltransferase 2A (Homo sapiens) (UniProt Q03164)
# Experiment: qHTS Fluorescence Polarization Assay for Inhibitors of MLL CXXC domain - DNA interaction
# Conditions: MLL-CXXC / FITC-HOXA9 DNA fluorescence polarization; series mostly up to 115 µM
# How it was run: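 Steps: dispense CXXC domain solution (7 uM) → pin compounds or unlabeled HOX-A9 DNA control → 5 min ambient → add FLSN-HOX-A9 solution (50 nM) → spin → 30 min ambient → fluorescence polarization. Tris pH 7.5/NaCl/DTT/BSA buffer.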
# Potency is read from the fitted curve at half-maximal effect.
row,SMILES,Potency
1,CCOc1ccc(C(=O)OCC(=O)NCCCc2ccccc2)cc1,"inconclusive: 63.1 µM [fluorescent, side channel, single point]"
2,CC1CCCC(NC(=S)NC(=O)c2ccccc2Br)C1C (configuration not stated),"inconclusive: 15.8 µM [fluorescent, side channel, single point]"
3,c1ccc(-c2cnn3c(-c4ccccc4)c(-c4ccccc4)nc3n2)cc1,"inconclusive: 7.94 µM [fluorescent, side channel, full curve]"
4,O=c1c(C(c2ccc(O)cc2)c2c(O)nc3n(c2=O)CCS3)c(O)nc2n1CCS2,"inconclusive: 39.8 µM [inhibitor, single point]"
5,O=C1S/C(=C/c2ccc(N3CCOCC3)o2)C(=O)N1Cc1c(F)cccc1Cl,"inconclusive: 25.1 µM [fluorescent, side channel, partial curve]"
6,CCCCCCCCC[n+]1cccc2c3ccccc3ccc21,inactive
7,CCCCOc1ccc(C2C3CN(C(=O)OCC)CC=C3C(C#N)=C(N)C2(C#N)C#N)cc1OC (configuration not stated),inactive
8,C#CCOCCOCCOCCNc1nc(N2CCN(C(=O)[C@H](Cc3ccc(O)cc3)n3cc([C@@H](N)C(C)CC)nn3)CC2)nc(N2CCN(C(=O)[C@H](Cc3cc4ccccc4[nH]3)n3cc([C@@H](N)Cc4ccc(O)cc4)nn3)CC2)n1 (some centres not stated),"inconclusive: 39.8 µM [quencher, side channel, single point]"
9,CCN(CC)CCCN1C(=O)c2oc3ccccc3c(=O)c2C1c1cccs1 (configuration not stated),"inconclusive: 89.1 µM [fluorescent, side channel, single point]"
10,Cc1cc(C)c(S(=O)(=O)c2cc(F)ccc2C)c(Cl)n1,"inconclusive: 89.1 µM [inhibitor, single point]"
11,CCN1C(=O)/C(=C2/Sc3ccccc3N2CC)SC1=S,"inconclusive: 44.7 µM [fluorescent, side channel, partial curve]"
12,COc1ccccc1-n1cnnc1SCC(=O)Nc1ccccc1,inactive
13,O=C(CN(Cc1ccco1)S(=O)(=O)c1ccccc1)N/N=C/c1ccccc1C(=O)O,inactive
14,CCN(c1cccc(C)c1)S(=O)(=O)c1ccc(-c2ccc(=O)[nH]n2)o1,"inconclusive: 10 µM [fluorescent, side channel, full curve]"
15,CN1C(=O)N(C)c2cccc3cccc1c23,"inconclusive: 12.6 µM [inhibitor, single point]"
16,COC(=O)c1cc(NC(=O)c2ccccc2)c(=O)oc1C/C=N\OCc1ccc(Cl)cc1Cl,"inconclusive: 39.8 µM [fluorescent, side channel, single point]"
17,Cc1ccccc1OCC(O)CNC1CCC(NCC(O)COc2ccccc2C)CC1 (configuration not stated),"inconclusive: 70.8 µM [fluorescent, side channel, single point]"
18,C=CCOC(=O)c1cc(-c2ccc(/C=C3\C(=O)NC(=O)C(C#N)=C3C)o2)ccc1Cl,"inconclusive: 10 µM [inhibitor, full curve, poor fit]"
19,Cc1cc(C)c2nc(C)cc(N/N=C/c3ccc(O)cc3)c2c1,"inconclusive: 28.2 µM [quencher, side channel, partial curve]"

# Some of the entries above in another layout.
row	SMILES	Potency
13	O=C(CN(Cc1ccco1)S(=O)(=O)c1ccccc1)N/N=C/c1ccccc1C(=O)O	inactive
14	CCN(c1cccc(C)c1)S(=O)(=O)c1ccc(-c2ccc(=O)[nH]n2)o1	inconclusive: 10 µM [fluorescent, side channel, full curve]

# (cont.)

row,SMILES,Potency
1,CC1=NOC(=O)/C1=C\c1ccc(-c2ccc(Br)cc2C(=O)O)o1,"inconclusive: 25.1 µM [inhibitor, partial curve]"
2,CCc1ccc(/C=C/c2c[nH]c3ccccc23)[n+](CC)c1,inactive
3,CCC(=O)NC(c1ccc(OC)cc1)c1cc(Cl)c2cccnc2c1O (configuration not stated),inactive
4,C/C(=N/NC(=O)CNC(=O)c1cccc(F)c1)c1ccc2c(c1)CCCC2,"inconclusive: 10 µM [fluorescent, side channel, single point]"
5,CCN1CCCC1CNC(=O)c1cc2c(OC)c(OC)c(OC)cc2[nH]1 (configuration not stated),"inconclusive: 70.8 µM [fluorescent, side channel, single point]"
6,O=C(CN1C(=O)CCC1=O)Nc1nc(-c2ccccn2)cs1,inactive
7,CCOc1ccc(-n2c(Cc3ccccc3)nnc2SCc2c(C)noc2C)cc1,"inconclusive: 15.8 µM [fluorescent, side channel, partial curve]"
8,Oc1ccc(/C=N/Nc2ccnc3cc(Cl)ccc23)c(O)c1O,"inconclusive: 70.8 µM [quencher, side channel, single point]"
9,CN(C)c1ncc(CN2CCC(C(=O)Nc3ccc(-n4cccn4)cc3)CC2)s1,"inconclusive: 7.94 µM [fluorescent, side channel, single point]"
10,CCn1c2ccccc2c2cc(NC(=O)CSc3nnc(-c4cccc(Cl)c4)o3)ccc21,"inconclusive: 14.1 µM [quencher, side channel, single point]"
11,CCCn1c(C)cc(C(=O)COc2ccc(S(=O)(=O)N(CC)CC)cc2[N+](=O)[O-])c1C,"inconclusive: 89.1 µM [fluorescent, side channel, single point]"
12,O=C(CSc1nc2ccccc2c(=O)n1Cc1ccc(F)cc1)NCc1cccs1,active: 7.94 µM
13,C=C(C)Cn1c(N2CCN(c3ccc(OC)cc3)CC2)nc2c1c(=O)n(C)c(=O)n2C,"inconclusive: 1.58 µM [fluorescent, side channel, full curve]"
14,COc1ccc(-n2c(SCc3ccc([N+](=O)[O-])cc3)nnc2-c2ccc(C)cc2)cc1,"inconclusive: 39.8 µM [fluorescent, side channel, single point]"
15,CN(C)c1ccc(/C=N/NC2=NS(=O)(=O)c3ccccc32)cc1,"inconclusive: 22.4 µM [fluorescent, side channel, partial curve]"
16,Cc1ccc(OCCN2CCN(c3nc(NCc4ccco4)c4ccccc4n3)CC2)cc1,inactive
17,CCOC(=O)c1cc2c(=O)n3ccccc3nc2n(Cc2ccccc2)c1=N,"inconclusive: 25.1 µM [quencher, side channel, partial curve]"
18,O=C1O[C@H](CN2CCOCC2)CN1/N=C\c1ccc([N+](=O)[O-])o1,"inconclusive: 39.8 µM [fluorescent, side channel, single point]"
